Results are given in words; binding and its absence hold for the method and conditions named. Binding seen in cells or lysates may run through a third protein. Some results given as binding are weak or reduced against the parent protein; the word gives no strength.
Columns and labels:
[1] = biological target: FGFR1 N546K-BirA*-Flag (human) (UniProt P11362); experiment: co-IP
[2] = biological target: FGFR1 N546K/R661P-BirA*-Flag (human) (UniProt P11362); experiment: co-IP

By UniProt entry, the sequences of proteins in these tests, tags left out. Where a name states a change or a piece, a line headed by the entry shows the natural chain unless it says otherwise. Chains listed by the source or under a name are the forms on record and can include a tag or linker.
FGFR1 N546K-BirA*-Flag (P11362, form named): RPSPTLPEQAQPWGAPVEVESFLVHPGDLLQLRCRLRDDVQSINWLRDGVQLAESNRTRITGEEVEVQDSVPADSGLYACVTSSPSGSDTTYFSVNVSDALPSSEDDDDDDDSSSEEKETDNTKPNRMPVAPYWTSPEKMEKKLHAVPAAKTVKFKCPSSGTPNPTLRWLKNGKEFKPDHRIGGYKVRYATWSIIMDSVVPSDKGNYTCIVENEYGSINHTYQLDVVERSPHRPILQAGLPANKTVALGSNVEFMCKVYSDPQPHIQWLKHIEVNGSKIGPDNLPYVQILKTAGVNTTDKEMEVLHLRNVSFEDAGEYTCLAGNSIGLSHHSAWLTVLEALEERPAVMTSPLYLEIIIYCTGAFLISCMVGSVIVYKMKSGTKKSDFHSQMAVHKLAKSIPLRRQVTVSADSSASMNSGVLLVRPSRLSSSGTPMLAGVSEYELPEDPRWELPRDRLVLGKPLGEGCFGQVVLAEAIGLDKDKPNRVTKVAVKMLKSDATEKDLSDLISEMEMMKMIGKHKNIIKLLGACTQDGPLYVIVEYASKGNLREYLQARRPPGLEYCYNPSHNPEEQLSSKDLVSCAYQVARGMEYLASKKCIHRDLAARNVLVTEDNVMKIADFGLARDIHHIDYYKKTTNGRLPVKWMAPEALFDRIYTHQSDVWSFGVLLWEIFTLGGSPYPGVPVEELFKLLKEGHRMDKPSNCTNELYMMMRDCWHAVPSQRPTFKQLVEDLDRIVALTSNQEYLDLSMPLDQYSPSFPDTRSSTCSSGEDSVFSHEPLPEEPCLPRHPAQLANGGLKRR
FGFR1 N546K/R661P-BirA*-Flag (P11362, form named): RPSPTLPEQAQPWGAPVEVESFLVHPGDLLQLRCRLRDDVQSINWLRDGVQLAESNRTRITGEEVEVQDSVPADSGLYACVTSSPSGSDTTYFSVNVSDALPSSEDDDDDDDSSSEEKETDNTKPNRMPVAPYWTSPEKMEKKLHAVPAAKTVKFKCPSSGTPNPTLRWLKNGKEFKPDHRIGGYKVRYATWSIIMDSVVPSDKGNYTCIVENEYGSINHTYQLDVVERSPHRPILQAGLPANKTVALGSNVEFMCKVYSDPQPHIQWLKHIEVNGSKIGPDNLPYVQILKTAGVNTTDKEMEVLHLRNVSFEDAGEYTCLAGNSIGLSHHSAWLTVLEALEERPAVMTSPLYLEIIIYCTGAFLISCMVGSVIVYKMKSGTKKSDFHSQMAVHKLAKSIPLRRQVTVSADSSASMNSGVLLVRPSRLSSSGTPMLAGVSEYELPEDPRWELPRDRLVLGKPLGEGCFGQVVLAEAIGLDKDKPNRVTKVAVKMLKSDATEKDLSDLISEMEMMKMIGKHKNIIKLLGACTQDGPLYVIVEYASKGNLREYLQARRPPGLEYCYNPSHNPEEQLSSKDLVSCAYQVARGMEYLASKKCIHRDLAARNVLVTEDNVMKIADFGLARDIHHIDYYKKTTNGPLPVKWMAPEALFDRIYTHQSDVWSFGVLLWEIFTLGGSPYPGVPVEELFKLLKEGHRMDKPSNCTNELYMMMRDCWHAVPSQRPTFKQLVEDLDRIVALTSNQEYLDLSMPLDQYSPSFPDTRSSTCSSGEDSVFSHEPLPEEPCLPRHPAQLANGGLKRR

B1: phospholipase C gamma 1 (PLCγ/PLCG1) (enzyme, UniProt P19174 1-1290)
chain: MAGAASPCANGCGPGAPSDAEVLHLCRSLEVGTVMTLFYSKKSQRPERKTFQVKLETRQITWSRGADKIEGAIDIREIKEIRPGKTSRDFDRYQEDPAFRPDQSHCFVILYGMEFRLKTLSLQATSEDEVNMWIKGLTWLMEDTLQAPTPLQIERWLRKQFYSVDRNREDRISAKDLKNMLSQVNYRVPNMRFLRERLTDLEQRSGDITYGQFAQLYRSLMYSAQKTMDLPFLEASTLRAGERPELCRVSLPEFQQFLLDYQGELWAVDRLQVQEFMLSFLRDPLREIEEPYFFLDEFVTFLFSKENSVWNSQLDAVCPDTMNNPLSHYWISSSHNTYLTGDQFSSESSLEAYARCLRMGCRCIELDCWDGPDGMPVIYHGHTLTTKIKFSDVLHTIKEHAFVASEYPVILSIEDHCSIAQQRNMAQYFKKVLGDTLLTKPVEISADGLPSPNQLKRKILIKHKKLAEGSAYEEVPTSMMYSENDISNSIKNGILYLEDPVNHEWYPHYFVLTSSKIYYSEETSSDQGNEDEEEPKEVSSSTELHSNEKWFHGKLGAGRDGRHIAERLLTEYCIETGAPDGSFLVRESETFVGDYTLSFWRNGKVQHCRIHSRQDAGTPKFFLTDNLVFDSLYDLITHYQQVPLRCNEFEMRLSEPVPQTNAHESKEWYHASLTRAQAEHMLMRVPRDGAFLVRKRNEPNSYAISFRAEGKIKHCRVQQEGQTVMLGNSEFDSLVDLISYYEKHPLYRKMKLRYPINEEALEKIGTAEPDYGALYEGRNPGFYVEANPMPTFKCAVKALFDYKAQREDELTFIKSAIIQNVEKQEGGWWRGDYGGKKQLWFPSNYVEEMVNPVALEPEREHLDENSPLGDLLRGVLDVPACQIAIRPEGKNNRLFVFSISMASVAHWSLDVAADSQEELQDWVKKIREVAQTADARLTEGKIMERRKKIALELSELVVYCRPVPFDEEKIGTERACYRDMSSFPETKAEKYVNKAKGKKFLQYNRLQLSRIYPKGQRLDSSNYDPLPMWICGSQLVALNFQTPDKPMQMNQALFMTGRHCGYVLQPSTMRDEAFDPFDKSSLRGLEPCAISIEVLGARHLPKNGRGIVCPFVEIEVAGAEYDSTKQKTEFVVDNGLNPVWPAKPFHFQISNPEFAFLRFVVYEEDMFSDQNFLAQATFPVKGLKTGYRAVPLKNNYSEDLELASLLIKIDIFPAKENGDLSPFSGTSLRERGSDASGQLFHGRAREGSFESRYQQPFEDFRISQEHLADHFDSRERRAPRRTRVNGDNRL
In the case of B1, the binding [1] is reported as “binds” and the binding [2] is reported as “binds”.

Reference: paper doi:10.1101/2025.05.27.654799
